Reference: article PMC6435701
These are yes or no findings as the source states them, for the method shown. For some assays here: In cells and extracts the contact can be indirect. Some entries that bind do so weakly or less than the wild type.

Legend:
[1] = biological target: ATPase family AAA domain-containing protein 3A (human (endogenous in iPS-derived neurons, fibroblasts, postmortem brain, HEK293)) (UniProt Q9NVI7); experiment: non-reducing SDS-PAGE and western blot; endogenous protein in total lysates of cells or tissues, 8% SDS-PAGE in the presence or absence of β-mercaptoethanol, WB with anti-ATAD3A or anti-Drp1
[2] = biological target: ATPase family AAA domain-containing protein 3A (human (endogenous in iPS-derived neurons, fibroblasts, postmortem brain, HEK293)) (UniProt Q9NVI7); experiment: cross-linking; HEK293 cells treated with cell-permeable DSP for 5 min at 37 °C, total lysates, SDS-PAGE and WB

binding [1]: binds
binding [2]: binds
B1: ATPase family AAA domain-containing protein 3A (protein, UniProt Q9NVI7-2 1-586)
chain: MSWLFGINKGPKGEGAGPPPPLPPAQPGAEGGGDRGLGDRPAPKDKWSNFDPTGLERAAKAARELEHSRYAKDALNLAQMQEQTLQLEQQSKLKEYEAAVEQLKSEQIRAQAEERRKTLSEETRQHQARAQYQDKLARQRYEDQLKQQQLLNEENLRKQEESVQKQEAMRRATVEREMELRHKNEMLRVEAEARARAKAERENADIIREQIRLKAAEHRQTVLESIRTAGTLFGEGFRAFVTDWDKVTATVAGLTLLAVGVYSAKNATLVAGRFIEARLGKPSLVRETSRITVLEALRHPIQVSRRLLSRPQDALEGVVLSPSLEARVRDIAIATRNTKKNRSLYRNILMYGPPGTGKTLFAKKLALHSGMDYAIMTGGDVAPMGREGVTAMHKLFDWANTSRRGLLLFVDEADAFLRKRATEKISEDLRATLNAFLYRTGQHSNKFMLVLASNQPEQFDWAINDRINEMVHFDLPGQEERERLVRMYFDKYVLKPATEGKQRLKLAQFDYGRKCSEVARLTEGMSGREIAQLAVSWQATAYASEDGVLTEAMMDTRVQDAVQQHQQKMCWLKAEGPGRGDEPSPS
